Data on one substance can be found in article PMC3398014.

Chains of the proteins cited; added tags and fusions are not shown. Lines headed by an entry give the natural chain unless they say otherwise; changes in a name come on top. Residues count along the entry.
UniProt P32004: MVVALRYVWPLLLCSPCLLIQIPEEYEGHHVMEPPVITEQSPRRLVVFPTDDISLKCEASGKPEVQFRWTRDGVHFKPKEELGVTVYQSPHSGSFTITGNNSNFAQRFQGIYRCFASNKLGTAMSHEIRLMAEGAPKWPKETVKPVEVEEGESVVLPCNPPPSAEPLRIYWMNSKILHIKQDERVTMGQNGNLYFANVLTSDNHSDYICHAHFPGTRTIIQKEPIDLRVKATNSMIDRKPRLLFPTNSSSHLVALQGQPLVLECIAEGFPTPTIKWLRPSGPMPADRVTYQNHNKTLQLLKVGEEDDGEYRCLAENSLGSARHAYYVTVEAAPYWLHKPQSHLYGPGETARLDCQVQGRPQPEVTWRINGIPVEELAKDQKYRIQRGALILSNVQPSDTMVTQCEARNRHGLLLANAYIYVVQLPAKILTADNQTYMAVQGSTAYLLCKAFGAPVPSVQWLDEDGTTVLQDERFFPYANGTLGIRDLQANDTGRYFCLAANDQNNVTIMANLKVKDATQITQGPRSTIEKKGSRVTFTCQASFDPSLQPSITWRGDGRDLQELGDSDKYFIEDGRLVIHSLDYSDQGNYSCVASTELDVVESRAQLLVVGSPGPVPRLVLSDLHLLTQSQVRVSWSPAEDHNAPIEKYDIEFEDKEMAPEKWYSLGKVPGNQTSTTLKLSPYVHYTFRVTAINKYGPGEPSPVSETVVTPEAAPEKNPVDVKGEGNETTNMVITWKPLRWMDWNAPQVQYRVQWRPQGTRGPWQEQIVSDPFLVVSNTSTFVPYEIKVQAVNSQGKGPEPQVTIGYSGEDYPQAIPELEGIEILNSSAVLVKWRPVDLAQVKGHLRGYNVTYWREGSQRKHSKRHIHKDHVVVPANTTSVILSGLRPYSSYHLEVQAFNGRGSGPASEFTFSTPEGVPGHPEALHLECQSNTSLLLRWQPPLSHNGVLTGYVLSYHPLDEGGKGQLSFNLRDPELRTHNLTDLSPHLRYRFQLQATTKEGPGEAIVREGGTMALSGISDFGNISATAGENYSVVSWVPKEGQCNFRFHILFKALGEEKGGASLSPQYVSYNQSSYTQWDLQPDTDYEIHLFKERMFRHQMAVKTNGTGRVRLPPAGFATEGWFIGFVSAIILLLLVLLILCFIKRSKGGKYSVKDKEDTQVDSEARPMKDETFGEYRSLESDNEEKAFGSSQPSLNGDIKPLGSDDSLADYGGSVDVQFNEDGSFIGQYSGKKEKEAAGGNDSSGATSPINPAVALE
UniProt P21860, residues 20-1342: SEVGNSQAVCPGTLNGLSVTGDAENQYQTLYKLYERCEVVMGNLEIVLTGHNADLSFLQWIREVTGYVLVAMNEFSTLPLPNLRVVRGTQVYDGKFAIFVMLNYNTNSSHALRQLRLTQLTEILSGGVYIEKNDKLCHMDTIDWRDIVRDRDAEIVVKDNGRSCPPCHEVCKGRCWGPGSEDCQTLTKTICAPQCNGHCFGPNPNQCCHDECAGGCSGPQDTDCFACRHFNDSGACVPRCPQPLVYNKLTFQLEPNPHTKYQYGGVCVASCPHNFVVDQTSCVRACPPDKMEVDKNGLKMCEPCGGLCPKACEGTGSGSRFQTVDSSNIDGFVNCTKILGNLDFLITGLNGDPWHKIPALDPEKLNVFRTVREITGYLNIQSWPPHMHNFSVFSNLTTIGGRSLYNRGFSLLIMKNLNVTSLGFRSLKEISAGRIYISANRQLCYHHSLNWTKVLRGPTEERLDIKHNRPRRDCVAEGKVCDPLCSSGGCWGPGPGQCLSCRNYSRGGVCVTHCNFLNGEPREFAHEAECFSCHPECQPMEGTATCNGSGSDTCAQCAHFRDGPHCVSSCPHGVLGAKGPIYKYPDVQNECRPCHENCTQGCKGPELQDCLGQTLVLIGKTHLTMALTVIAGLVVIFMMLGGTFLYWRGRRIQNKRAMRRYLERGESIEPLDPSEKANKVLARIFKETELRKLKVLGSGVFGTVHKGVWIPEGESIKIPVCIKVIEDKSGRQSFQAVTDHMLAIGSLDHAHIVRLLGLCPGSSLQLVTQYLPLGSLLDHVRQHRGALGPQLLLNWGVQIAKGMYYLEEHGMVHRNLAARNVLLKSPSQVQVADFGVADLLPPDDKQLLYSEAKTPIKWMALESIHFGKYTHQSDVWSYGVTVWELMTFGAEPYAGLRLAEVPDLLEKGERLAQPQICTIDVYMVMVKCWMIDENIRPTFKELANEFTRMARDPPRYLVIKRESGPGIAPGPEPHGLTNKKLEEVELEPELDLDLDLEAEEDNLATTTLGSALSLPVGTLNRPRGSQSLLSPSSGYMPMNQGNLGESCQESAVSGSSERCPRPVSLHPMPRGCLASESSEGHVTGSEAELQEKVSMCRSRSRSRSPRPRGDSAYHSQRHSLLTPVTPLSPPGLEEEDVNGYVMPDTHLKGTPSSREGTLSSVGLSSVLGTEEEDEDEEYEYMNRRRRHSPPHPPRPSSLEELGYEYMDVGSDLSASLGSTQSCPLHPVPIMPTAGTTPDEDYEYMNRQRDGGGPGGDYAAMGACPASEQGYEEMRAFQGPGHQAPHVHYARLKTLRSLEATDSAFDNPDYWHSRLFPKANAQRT

Among the targets are ΔFn-L1CAM (human) (UniProt P32004); ΔIg-L1CAM (human) (UniProt P32004); ΔIg1-3-L1CAM (human) (UniProt P32004); ΔIg4-6-L1CAM (human) (UniProt P32004).
Common to all, as to assay: co-IP; HEK293 cells co-transfected; lysis in 50 mM Tris, 150 mM NaCl, 2 mM EDTA, 0.5% Triton X-100; antibody-loaded protein A-Sepharose, 3 h on ice; western blot of the partner; done in both directions

No constants are given. Whether binding was seen depends on the method and setting. Binding seen in cells or lysates may run through a third protein. For some of these results: Binding calls can cover weak binding; strength is not graded here.

For “erbB3 receptor (from UniProt P21860 20-1342)”, the binding result with ΔFn-L1CAM (human) is listed as “binds”; with ΔIg-L1CAM (human), “no binding”; with ΔIg1-3-L1CAM (human) it was “binds”; with ΔIg4-6-L1CAM (human), “binds”.
